Measured values taken from paper doi:10.1101/183285.
No constants are given. Whether binding was seen depends on the method and setting. In cells and extracts the contact can be indirect. Some results given as binding are weak or reduced against the parent protein; the word gives no strength.

Molecular target: T1, LHX2 (mouse (endogenous in retina)) (UniProt Q9Z0S2)
T1 sequence: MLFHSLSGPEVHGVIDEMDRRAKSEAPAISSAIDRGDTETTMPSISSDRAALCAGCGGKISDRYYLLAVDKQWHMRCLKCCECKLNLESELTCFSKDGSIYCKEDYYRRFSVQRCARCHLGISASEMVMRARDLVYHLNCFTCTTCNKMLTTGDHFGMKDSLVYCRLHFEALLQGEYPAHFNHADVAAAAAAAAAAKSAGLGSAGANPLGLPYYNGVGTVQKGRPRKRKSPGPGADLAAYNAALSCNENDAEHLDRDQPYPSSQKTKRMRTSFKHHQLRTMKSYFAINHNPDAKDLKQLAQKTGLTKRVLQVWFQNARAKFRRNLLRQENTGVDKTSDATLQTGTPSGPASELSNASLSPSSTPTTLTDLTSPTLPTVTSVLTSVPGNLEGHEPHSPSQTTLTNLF
Test: co-IP

- binding: binds
B1: LDB1 (protein, UniProt P70662 1-411)
chain: MSVGCACPGCSSKSFKLYSPKEPPNGNAFPPFHPGTMLDRDVGPTPMYPPTYLEPGIGRHTPYGNQTDYRIFELNKRLQNWTEECDNLWWDAFTTEFFEDDAMLTITFCLEDGPKRYTIGRTLIPRYFRSIFEGGATELYYVLKHPKEAFHSNFVSLDCDQGSMVTQHGKPMFTQVCVEGRLYLEFMFDDMMRIKTWHFSIRQHRELIPRSILAMHAQDPQMLDQLSKNITRCGLSNSTLNYLRLCVILEPMQELMSRHKTYSLSPRDCLKTCLFQKWQRMVAPPAEPARQQPSKRRKRKMSGGSTMSSGGGNTNNSNSKKKSPASTFALSSQVPDVMVVGEPTLMGGEFGDEDERLITRLENTQFDAANGIDDEDSFNNSPALGANSPWNSKPPSSQESKSENPTSQASQ
